The record followed here is paper doi:10.1101/2020.11.23.394106 (bioRxiv, 2020).

Chains of the proteins cited; added tags and fusions are not shown. Lines headed by an entry give the natural chain unless they say otherwise; changes in a name come on top. Residues count along the entry.
UniProt P35240, residues 22-312: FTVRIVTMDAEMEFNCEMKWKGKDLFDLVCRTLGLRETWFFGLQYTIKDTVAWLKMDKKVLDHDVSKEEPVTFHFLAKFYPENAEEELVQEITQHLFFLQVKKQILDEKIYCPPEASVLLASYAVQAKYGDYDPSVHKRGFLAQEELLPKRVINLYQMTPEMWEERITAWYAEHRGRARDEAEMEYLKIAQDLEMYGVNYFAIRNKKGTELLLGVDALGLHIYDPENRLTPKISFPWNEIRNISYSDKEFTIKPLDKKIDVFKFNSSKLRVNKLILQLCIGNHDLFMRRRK
UniProt P26038, residues 2-295: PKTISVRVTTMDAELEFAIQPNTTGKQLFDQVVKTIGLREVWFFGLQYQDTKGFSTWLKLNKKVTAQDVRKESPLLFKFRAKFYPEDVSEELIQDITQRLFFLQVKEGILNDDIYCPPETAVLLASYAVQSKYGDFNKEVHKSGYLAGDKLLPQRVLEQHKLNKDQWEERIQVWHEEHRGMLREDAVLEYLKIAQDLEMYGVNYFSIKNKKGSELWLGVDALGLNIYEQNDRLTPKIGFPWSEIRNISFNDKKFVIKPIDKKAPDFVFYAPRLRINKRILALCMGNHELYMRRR
UniProt O14745: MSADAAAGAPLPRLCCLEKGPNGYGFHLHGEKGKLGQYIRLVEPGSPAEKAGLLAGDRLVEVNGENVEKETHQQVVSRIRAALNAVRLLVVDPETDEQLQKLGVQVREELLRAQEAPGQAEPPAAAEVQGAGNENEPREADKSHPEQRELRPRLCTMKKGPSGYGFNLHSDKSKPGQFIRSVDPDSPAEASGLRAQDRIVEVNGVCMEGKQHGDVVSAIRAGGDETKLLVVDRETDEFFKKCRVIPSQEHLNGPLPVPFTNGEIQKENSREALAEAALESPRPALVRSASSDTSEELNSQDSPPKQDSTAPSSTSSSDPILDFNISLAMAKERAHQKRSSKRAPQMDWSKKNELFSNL
UniProt Q8IZU9: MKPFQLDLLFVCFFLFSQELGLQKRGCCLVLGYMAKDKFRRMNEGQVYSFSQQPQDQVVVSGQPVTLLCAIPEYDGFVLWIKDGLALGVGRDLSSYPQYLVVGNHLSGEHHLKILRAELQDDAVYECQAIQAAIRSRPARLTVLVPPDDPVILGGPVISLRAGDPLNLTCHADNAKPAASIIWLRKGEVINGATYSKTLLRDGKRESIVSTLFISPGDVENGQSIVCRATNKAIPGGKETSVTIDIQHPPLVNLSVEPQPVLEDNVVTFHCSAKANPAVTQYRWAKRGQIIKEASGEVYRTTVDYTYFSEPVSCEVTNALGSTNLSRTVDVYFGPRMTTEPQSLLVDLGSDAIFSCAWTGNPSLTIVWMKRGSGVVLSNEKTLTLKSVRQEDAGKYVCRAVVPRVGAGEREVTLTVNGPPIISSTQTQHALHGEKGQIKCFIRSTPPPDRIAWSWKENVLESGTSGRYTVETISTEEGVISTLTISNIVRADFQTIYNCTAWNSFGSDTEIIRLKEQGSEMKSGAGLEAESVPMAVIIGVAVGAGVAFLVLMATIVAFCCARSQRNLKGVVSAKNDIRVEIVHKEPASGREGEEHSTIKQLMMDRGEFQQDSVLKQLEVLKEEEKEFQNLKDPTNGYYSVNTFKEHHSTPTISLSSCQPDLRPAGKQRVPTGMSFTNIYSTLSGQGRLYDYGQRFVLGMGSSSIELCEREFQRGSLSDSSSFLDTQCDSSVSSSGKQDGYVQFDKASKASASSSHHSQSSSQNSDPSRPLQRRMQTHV
UniProt Q969S3: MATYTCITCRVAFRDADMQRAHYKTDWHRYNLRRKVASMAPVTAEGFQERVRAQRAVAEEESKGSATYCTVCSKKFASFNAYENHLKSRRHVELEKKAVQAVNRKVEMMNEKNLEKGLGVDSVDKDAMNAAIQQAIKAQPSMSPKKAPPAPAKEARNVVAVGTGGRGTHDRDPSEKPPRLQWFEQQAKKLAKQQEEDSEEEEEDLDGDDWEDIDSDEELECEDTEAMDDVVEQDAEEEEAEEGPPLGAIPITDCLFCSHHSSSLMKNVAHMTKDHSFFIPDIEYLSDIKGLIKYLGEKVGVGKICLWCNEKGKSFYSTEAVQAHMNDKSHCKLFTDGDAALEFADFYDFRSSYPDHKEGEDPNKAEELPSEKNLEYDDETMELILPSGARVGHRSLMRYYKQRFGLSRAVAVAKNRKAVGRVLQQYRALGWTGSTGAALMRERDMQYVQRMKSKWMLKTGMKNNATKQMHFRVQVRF
UniProt P57082: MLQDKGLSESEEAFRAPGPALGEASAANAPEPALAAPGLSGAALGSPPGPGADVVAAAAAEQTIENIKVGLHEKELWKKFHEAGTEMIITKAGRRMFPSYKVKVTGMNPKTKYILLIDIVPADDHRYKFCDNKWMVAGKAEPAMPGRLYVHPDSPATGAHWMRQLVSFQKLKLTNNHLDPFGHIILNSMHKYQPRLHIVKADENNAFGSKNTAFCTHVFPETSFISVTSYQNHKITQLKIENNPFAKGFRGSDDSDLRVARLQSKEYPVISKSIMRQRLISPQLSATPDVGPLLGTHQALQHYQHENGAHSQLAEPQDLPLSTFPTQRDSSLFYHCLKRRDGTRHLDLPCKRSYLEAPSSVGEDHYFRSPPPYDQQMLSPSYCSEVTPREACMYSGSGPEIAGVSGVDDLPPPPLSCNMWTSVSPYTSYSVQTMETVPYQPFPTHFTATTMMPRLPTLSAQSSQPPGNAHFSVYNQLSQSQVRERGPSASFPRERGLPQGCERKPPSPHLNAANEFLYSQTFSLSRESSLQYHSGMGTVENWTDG
UniProt P15311, residues 2-296: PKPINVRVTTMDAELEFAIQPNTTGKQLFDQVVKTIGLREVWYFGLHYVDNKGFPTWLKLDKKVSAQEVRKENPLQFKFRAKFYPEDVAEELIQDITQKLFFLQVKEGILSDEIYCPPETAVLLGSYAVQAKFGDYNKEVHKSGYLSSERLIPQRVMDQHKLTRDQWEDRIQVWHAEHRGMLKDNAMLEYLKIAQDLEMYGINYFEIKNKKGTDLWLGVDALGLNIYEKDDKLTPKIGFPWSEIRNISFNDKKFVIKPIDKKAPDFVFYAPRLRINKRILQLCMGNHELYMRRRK
UniProt Q9NQU5: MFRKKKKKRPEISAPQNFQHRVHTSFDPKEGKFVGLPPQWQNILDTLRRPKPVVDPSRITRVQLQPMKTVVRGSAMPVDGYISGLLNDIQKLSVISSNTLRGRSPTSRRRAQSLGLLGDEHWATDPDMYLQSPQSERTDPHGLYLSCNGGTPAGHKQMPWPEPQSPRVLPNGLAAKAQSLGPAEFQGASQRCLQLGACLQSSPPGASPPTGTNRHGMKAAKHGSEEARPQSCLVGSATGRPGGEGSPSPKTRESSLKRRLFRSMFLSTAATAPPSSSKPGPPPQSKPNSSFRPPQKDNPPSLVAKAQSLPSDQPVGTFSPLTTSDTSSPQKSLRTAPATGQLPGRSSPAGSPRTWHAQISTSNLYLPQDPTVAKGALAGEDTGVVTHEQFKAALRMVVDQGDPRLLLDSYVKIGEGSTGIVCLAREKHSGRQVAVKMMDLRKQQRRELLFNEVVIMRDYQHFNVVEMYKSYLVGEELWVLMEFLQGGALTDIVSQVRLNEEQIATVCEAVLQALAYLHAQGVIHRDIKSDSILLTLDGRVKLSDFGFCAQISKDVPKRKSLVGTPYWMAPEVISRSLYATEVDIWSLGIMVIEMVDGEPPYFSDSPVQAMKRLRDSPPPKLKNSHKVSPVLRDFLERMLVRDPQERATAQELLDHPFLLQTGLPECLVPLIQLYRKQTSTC
UniProt Q16665: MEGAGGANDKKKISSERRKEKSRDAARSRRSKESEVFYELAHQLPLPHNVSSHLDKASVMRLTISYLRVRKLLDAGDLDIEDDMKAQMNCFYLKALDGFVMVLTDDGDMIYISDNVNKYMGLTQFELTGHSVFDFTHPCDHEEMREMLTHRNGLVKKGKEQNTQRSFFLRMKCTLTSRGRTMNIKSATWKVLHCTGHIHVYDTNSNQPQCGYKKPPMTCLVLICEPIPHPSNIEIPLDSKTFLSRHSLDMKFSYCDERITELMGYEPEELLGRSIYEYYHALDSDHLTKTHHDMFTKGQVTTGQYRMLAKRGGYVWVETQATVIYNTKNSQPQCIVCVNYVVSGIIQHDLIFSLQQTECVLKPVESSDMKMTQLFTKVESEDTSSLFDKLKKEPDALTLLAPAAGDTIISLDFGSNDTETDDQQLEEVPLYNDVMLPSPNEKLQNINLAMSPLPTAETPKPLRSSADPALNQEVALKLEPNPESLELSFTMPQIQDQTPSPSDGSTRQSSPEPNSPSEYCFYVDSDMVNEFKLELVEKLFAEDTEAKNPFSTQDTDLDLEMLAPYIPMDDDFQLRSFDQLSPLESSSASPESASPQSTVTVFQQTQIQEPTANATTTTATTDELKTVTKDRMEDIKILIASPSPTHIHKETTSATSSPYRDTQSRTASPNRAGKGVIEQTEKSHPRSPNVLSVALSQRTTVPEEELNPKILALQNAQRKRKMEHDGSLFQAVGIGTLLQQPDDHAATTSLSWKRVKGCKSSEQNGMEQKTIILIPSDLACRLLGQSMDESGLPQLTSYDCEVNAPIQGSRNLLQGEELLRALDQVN
UniProt Q8IVT2: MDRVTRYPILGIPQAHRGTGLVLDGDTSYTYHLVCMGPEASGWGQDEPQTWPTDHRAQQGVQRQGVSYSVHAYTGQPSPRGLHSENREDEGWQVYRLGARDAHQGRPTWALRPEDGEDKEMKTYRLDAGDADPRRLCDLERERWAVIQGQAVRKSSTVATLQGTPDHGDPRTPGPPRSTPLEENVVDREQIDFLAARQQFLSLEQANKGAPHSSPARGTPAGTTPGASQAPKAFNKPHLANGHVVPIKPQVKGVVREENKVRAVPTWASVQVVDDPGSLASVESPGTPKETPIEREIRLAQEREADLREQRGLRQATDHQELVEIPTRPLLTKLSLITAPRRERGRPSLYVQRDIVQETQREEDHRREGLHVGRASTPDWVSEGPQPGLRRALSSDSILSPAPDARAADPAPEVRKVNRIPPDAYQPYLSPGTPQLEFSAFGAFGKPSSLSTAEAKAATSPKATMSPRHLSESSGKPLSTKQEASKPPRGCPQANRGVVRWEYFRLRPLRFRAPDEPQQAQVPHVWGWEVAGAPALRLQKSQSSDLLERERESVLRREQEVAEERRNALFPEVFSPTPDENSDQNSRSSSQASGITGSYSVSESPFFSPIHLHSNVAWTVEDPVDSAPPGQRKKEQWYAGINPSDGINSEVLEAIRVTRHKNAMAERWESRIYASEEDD

Like-named read-outs stand apart in the source and are kept apart here. These are yes or no findings as the source states them, for the method shown. For part of these data: In cells and extracts the contact can be indirect. Some results given as binding are weak or reduced against the parent protein; the word gives no strength. For part of these data: Tags and fused reporters may be left off the sequences shown.

The target of experiment [1] is GST-tagged merlin FERM domain (22-312) (human) (UniProt P35240). The experiment can be described thus: pull-down.
Experiment [2] addresses GST-tagged moesin FERM domain (UniProt P26038). Kind of experiment: competitive ProP-PD selection.
Experiment [3] has the same target. The experiment can be described thus: pull-down.
In experiment [4] the target is moesin FERM domain, GST tag cleaved (UniProt P26038 2-295). Kind of experiment: fluorescence polarisation. (Fluorescence polarisation rises when a labelled molecule tumbles more slowly, as on binding a larger partner.)
Experiment [5] has as its target T1, FITC-labeled EBP50_(343-358) (UniProt O14745).
T1 sequence (peptide, FITC label): APQMDWSKKNELFSNL
Kind of experiment: fluorescence polarisation.

In experiment [6] the target is T2, FITC-labeled KIRREL3_(637-652) (human) (UniProt Q8IZU9).
T2 sequence (peptide, FITC label): YYSVNTFKEHHSTPTI
Kind of experiment: fluorescence polarisation.

For experiment [7], the target named is T3, FITC-labeled ZNF622_(341-356) (human) (UniProt Q969S3).
T3 sequence (peptide, FITC label): LEFADFYDFRSSYPDH
The experiment can be described thus: fluorescence polarisation.

In experiment [8] the target is T4, FITC-labeled TBX4_(428-443) (human) (UniProt P57082).
T4 sequence (peptide, FITC label): SYSVQTMETVPYQPFP
The experiment can be described thus: fluorescence polarisation.

Experiment [9] has as its target T5, FITC-labeled LATS1_(73-88) (human).
T5 sequence (peptide, FITC label): THHKALQEIRNSLLPF
The experiment can be described thus: fluorescence polarisation.

The target of experiment [10] is T4, FITC-labeled TBX4_(428-443) (human). The experiment can be described thus: fluorescence polarisation. The source holds these as a separate data set.
Experiment [11] concerns the target T1, FITC-labeled EBP50_(343-358). Kind of experiment: fluorescence polarisation. The source holds these as a separate data set.
Experiment [12] addresses T2, FITC-labeled KIRREL3_(637-652) (human). The experiment can be described thus: fluorescence polarisation. This is another data set of the same source.
Experiment [13] has as its target T3, FITC-labeled ZNF622_(341-356) (human). Kind of experiment: fluorescence polarisation. The source holds these as a separate data set.
The target of experiment [14] is T6, FITC-labeled FAM83G_(111-126) (human).
T6 sequence (peptide, FITC label): AEPLPSLEYWPQKSDR
Kind of experiment: fluorescence polarisation.

For experiment [15], the target named is GST-tagged ezrin FERM domain (UniProt P15311). Kind of experiment: ELISA. (In general: An ELISA detects its analyte on a solid surface through an enzyme-linked reagent.)
Experiment [16] concerns the target GST-tagged merlin FERM domain (22-312) (human) (UniProt P35240). The experiment can be described thus: ELISA.
Experiment [17] concerns the target GST-tagged moesin FERM domain (UniProt P26038). Kind of experiment: ELISA.

For “full-length PAK6 (HA-PAK6) (from UniProt Q9NQU5 1-681)”, the binding result in experiment [1] is listed as “binds”. Consider “HIF1A_(37-52), phage-displayed (from UniProt Q16665 37-52) (peptide)”, for which the binding entry in experiment [2] is “binds”.

As to “full-length HIF1A (HA-HIF1-alpha) (from UniProt Q16665 1-826)”, the binding result in experiment [3] was “binds”. Regarding “HIF1A_(37-52), unlabeled peptide (from UniProt Q16665 37-52)”, the binding entry in experiment [4] is reported as “binds”. As to “moesin FERM domain, GST tag cleaved (from UniProt P26038 2-295) (domain or fragment)”, the binding entry in experiment [5], in experiment [6], in experiment [7], in [8], in experiment [9] and in [10] was “binds” each time. The binding entry in [11] is reported as “binds”; in experiment [12], “binds”; in [13], “binds”; in [14] it was “binds weakly”.

B1: FAM83G_(111-126), phage-displayed (peptide)
peptide: AEPLPSLEYWPQKSDR
With B1, the binding entry in [15], in experiment [16] and in experiment [17] was “binds” in each case.

B2: MISP_(595-610), unlabeled peptide (peptide, UniProt Q8IVT2 595-610)
peptide: ITGSYSVSESPFFSPI
In the case of B2, in experiment [4], the binding result was “binds”.

B3: EBP50_(343-358), unlabeled peptide (peptide, UniProt O14745 343-358)
peptide: APQMDWSKKNELFSNL
As to B3, the binding result in experiment [4] was “binds”.

B4: LATS1_(73-88), unlabeled peptide (peptide)
peptide: THHKALQEIRNSLLPF
As for B4, the binding entry in [4] is recorded as “binds”.

B5: FAM83G_(111-126) with the N-terminal region deleted (AEPLP deletion), phage-displayed (peptide)
peptide: SLEYWPQKSDR
Consider B5, for which the binding entry in experiment [16] is listed as “binds”.

B6: FAM83G_(111-126) with the C-terminal region deleted (KSDR deletion), phage-displayed (peptide)
peptide: AEPLPSLEYWPQ
As for B6, the binding entry in experiment [16] was “binds”.

B7: TBX4 peptide with N-terminal extension of three amino acids, unlabeled (peptide, UniProt P57082 425-443)
peptide: PYTSYSVQTMETVPYQPFP
Consider B7, for which the binding entry in experiment [4] is given as “binds”.

B8: LATS1_(73-88), phage-displayed (peptide)
peptide: THHKALQEIRNSLLPF
Turning to B8, the binding entry in experiment [2] is “binds”.

B9: full-length RRBP1 (RRBP1-GFP) (protein, UniProt Q9P2E9 1-1410)
chain: MDIYDTQTLGVVVFGGFMVVSAIGIFLVSTFSMKETSYEEALANQRKEMAKTHHQKVEKKKKEKTVEKKGKTKKKEEKPNGKIPDHDPAPNVTVLLREPVRAPAVAVAPTPVQPPIIVAPVATVPAMPQEKLASSPKDKKKKEKKVAKVEPAVSSVVNSIQVLTSKAAILETAPKEVPMVVVPPVGAKGNTPATGTTQGKKAEGTQNQSKKAEGAPNQGRKAEGTPNQGKKTEGTPNQGKKAEGTPNQGKKAEGTPNQGKKAEGAQNQGKKVDTTPNQGKKVEGAPTQGRKAEGAQNQAKKVEGAQNQGKKAEGAQNQGKKGEGAQNQGKKAEGAQNQGKKAEGAQNQGKKAEGAQNQGKKAEGAQNQGKKAEGAQNQGKKAEGAQNQGKKVEGAQNQGKKAEGAQNQGKKAEGAQNQGKKAEGAQNQGKKAEGAQNQGKKAEGAQNQGKKAEGAQNQGKKAEGAQNQGKKVEGAQNQGKKAEGAQNQGKKAEGAQNQGKKAEGAQNQGQKGEGAQNQGKKTEGAQGKKAERSPNQGKKGEGAPIQGKKADSVANQGTKVEGITNQGKKAEGSPSEGKKAEGSPNQGKKADAAANQGKKTESASVQGRNTDVAQSPEAPKQEAPAKKKSGSKKKGEPGPPDADGPLYLPYKTLVSTVGSMVFNEGEAQRLIEILSEKAGIIQDTWHKATQKGDPVAILKRQLEEKEKLLATEQEDAAVAKSKLRELNKEMAAEKAKAAAGEAKVKKQLVAREQEITAVQARMQASYREHVKEVQQLQGKIRTLQEQLENGPNTQLARLQQENSILRDALNQATSQVESKQNAELAKLRQELSKVSKELVEKSEAVRQDEQQRKALEAKAAAFEKQVLQLQASHRESEEALQKRLDEVSRELCHTQSSHASLRADAEKAQEQQQQMAELHSKLQSSEAEVRSKCEELSGLHGQLQEARAENSQLTERIRSIEALLEAGQARDAQDVQASQAEADQQQTRLKELESQVSGLEKEAIELREAVEQQKVKNNDLREKNWKAMEALATAEQACKEKLLSLTQAKEESEKQLCLIEAQTMEALLALLPELSVLAQQNYTEWLQDLKEKGPTLLKHPPAPAEPSSDLASKLREAEETQSTLQAECDQYRSILAETEGMLRDLQKSVEEEEQVWRAKVGAAEEELQKSRVTVKHLEEIVEKLKGELESSDQVREHTSHLEAELEKHMAAASAECQNYAKEVAGLRQLLLESQSQLDAAKSEAQKQSDELALVRQQLSEMKSHVEDGDIAGAPASSPEAPPAEQDPVQLKTQLEWTEAILEDEQTQRQKLTAEFEEAQTSACRLQEELEKLRTAGPLESSETEEASQLKERLEKEKKLTSDLGRAATRLQELLKTTQEQLAREKDTVKKLQEQLEKAEDGSSSKEGTSV
In the case of B9, in [1], the binding entry was “binds”.

B10: RRBP1_(1365-1380), phage-displayed (peptide)
peptide: RAATRLQELLKTTQEQ
Take B10: the binding result in experiment [15], in experiment [16] and in experiment [17] was “binds” each time.

B11: TBX4_(428-443), unlabeled peptide (peptide, UniProt P57082 428-443)
peptide: SYSVQTMETVPYQPFP
On to B11, for which the binding entry in experiment [4] is “binds”.

B12: ZNF622_(341-356), unlabeled peptide (peptide, UniProt Q969S3 341-356)
peptide: LEFADFYDFRSSYPDH
B12: in experiment [4], the binding result is reported as “binds”.
